{"source": "PubChem BioAssay AID1224830 (NIAID, 2016)", "test": "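Regulators of TLR4 signalling towards TNF-alpha in macrophage-like cells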 (primary screen)", "system": "human THP-1 monocytic leukaemia cells, TNF dual-luciferase reporter clone, PMA-differentiated to macrophage-like cells", "knock-down reagent": "siRNA pool against human genes, 50 nM", "timing": "LPS for 4 h, given about 3 days after siRNA transfection", "treatment": "bacterial LPS (TLR4 ligand), 10 ng/ml", "measured": "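Ratio of firefly to renilla light, scaled to the plate median and expressed as a robust z-score per replicate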", "scale": "TNF reporter robust z-score: higher = stronger TNF reporter response to LPS", "call rule": "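a well is active when its z-score exceeds 2.8 or falls below -1.5; control wells carry no call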", "note": "This is a random part of about 18,000 deposited reagents. In the full data, about 2,900 (16%) got an active call. 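Calls are made per well; low scores hint the gene aids the LPS response, high scores that it dampens it.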 Repeated entries: four replicate wells of each siRNA pool."}
{"gene": "N4BP1", "TNF reporter robust z-score": 0.87, "call": "inactive"}
{"gene": "N4BP1", "TNF reporter robust z-score": 1.55, "call": "inactive"}
{"gene": "N4BP1", "TNF reporter robust z-score": -0.21, "call": "inactive"}
{"gene": "LMNB1", "TNF reporter robust z-score": 2.72, "call": "inactive"}
{"gene": "LMNB1", "TNF reporter robust z-score": 2.91, "call": "active"}
{"gene": "LMNB1", "TNF reporter robust z-score": 0, "call": "inactive"}
{"gene": "LMNB1", "TNF reporter robust z-score": -0.07, "call": "inactive"}
{"gene": "CT47A5", "TNF reporter robust z-score": 2.14, "call": "inactive"}
{"gene": "CT47A5", "TNF reporter robust z-score": 1.73, "call": "inactive"}
{"gene": "CT47A5", "TNF reporter robust z-score": 0.59, "call": "inactive"}
{"gene": "CT47A5", "TNF reporter robust z-score": 1.86, "call": "inactive"}
{"gene": "TXNDC16", "TNF reporter robust z-score": -1.72, "call": "active"}
{"gene": "TXNDC16", "TNF reporter robust z-score": -1.47, "call": "inactive"}
{"gene": "TXNDC16", "TNF reporter robust z-score": -1.48, "call": "inactive"}
{"gene": "TXNDC16", "TNF reporter robust z-score": -1.18, "call": "inactive"}
{"gene": "ADGRF2P", "TNF reporter robust z-score": -0.16, "call": "inactive"}
{"gene": "ADGRF2P", "TNF reporter robust z-score": -0.28, "call": "inactive"}
{"gene": "ADGRF2P", "TNF reporter robust z-score": 0.77, "call": "inactive"}
{"gene": "ADGRF2P", "TNF reporter robust z-score": 1.46, "call": "inactive"}
{"gene": "IFIH1", "TNF reporter robust z-score": -2.34, "call": "active"}
{"gene": "IFIH1", "TNF reporter robust z-score": -0.01, "call": "inactive"}
{"gene": "IFIH1", "TNF reporter robust z-score": -0.93, "call": "inactive"}
{"gene": "IFIH1", "TNF reporter robust z-score": -0.26, "call": "inactive"}
{"gene": "INPP5J", "TNF reporter robust z-score": -1.28, "call": "inactive"}
{"gene": "INPP5J", "TNF reporter robust z-score": -1.27, "call": "inactive"}
{"gene": "INPP5J", "TNF reporter robust z-score": -1.34, "call": "inactive"}
{"gene": "INPP5J", "TNF reporter robust z-score": -0.35, "call": "inactive"}
{"gene": "PRSS2", "TNF reporter robust z-score": -0.31, "call": "inactive"}
{"gene": "PRSS2", "TNF reporter robust z-score": -0.03, "call": "inactive"}
{"gene": "PRSS2", "TNF reporter robust z-score": 0.26, "call": "inactive"}
{"gene": "PRSS2", "TNF reporter robust z-score": 0.23, "call": "inactive"}

The list goes on; the last 4 above are carried over.
{"gene": "PRSS2", "TNF reporter robust z-score": -0.31, "call": "inactive"}
{"gene": "PRSS2", "TNF reporter robust z-score": -0.03, "call": "inactive"}
{"gene": "PRSS2", "TNF reporter robust z-score": 0.26, "call": "inactive"}
{"gene": "PRSS2", "TNF reporter robust z-score": 0.23, "call": "inactive"}
{"gene": "RDH11", "TNF reporter robust z-score": 0.16, "call": "inactive"}
{"gene": "RDH11", "TNF reporter robust z-score": -0.33, "call": "inactive"}
{"gene": "RDH11", "TNF reporter robust z-score": 0.35, "call": "inactive"}
{"gene": "RDH11", "TNF reporter robust z-score": -0.15, "call": "inactive"}
{"gene": "NUDT16", "TNF reporter robust z-score": 0.9, "call": "inactive"}
{"gene": "NUDT16", "TNF reporter robust z-score": 0.22, "call": "inactive"}
{"gene": "NUDT16", "TNF reporter robust z-score": 1.54, "call": "inactive"}
{"gene": "NUDT16", "TNF reporter robust z-score": 0.72, "call": "inactive"}
{"gene": "PRB3", "TNF reporter robust z-score": -0.28, "call": "inactive"}
{"gene": "PRB3", "TNF reporter robust z-score": 0.86, "call": "inactive"}
{"gene": "PRB3", "TNF reporter robust z-score": 0.24, "call": "inactive"}
{"gene": "PRB3", "TNF reporter robust z-score": -0.13, "call": "inactive"}
{"gene": "ERC1", "TNF reporter robust z-score": -1.82, "call": "active"}
{"gene": "ERC1", "TNF reporter robust z-score": -1.83, "call": "active"}
{"gene": "ERC1", "TNF reporter robust z-score": -1.8, "call": "active"}
{"gene": "ERC1", "TNF reporter robust z-score": -1.62, "call": "active"}
